Reference: US20130045219A1 (UCB, published 2013)
No constants are given. Whether binding was seen depends on the method and setting. Some results given as binding are weak or reduced against the parent protein; the word gives no strength.

T1: Myc-tagged CD154 (UniProt P29965 116-261, limits assumed)
T1 construct: Captured on the ELISA plate by anti-Myc antibody 9E10; The order of tag and CD154 is not known; also called CD40L; not shown: Myc tag
T1 sequence (looked up): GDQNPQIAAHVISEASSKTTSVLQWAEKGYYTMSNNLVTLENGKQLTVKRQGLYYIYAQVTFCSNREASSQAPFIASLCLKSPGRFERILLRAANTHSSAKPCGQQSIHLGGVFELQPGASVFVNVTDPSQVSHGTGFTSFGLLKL

T2: CD154 expressed on D1.1 Jurkat cells (UniProt P29965 1-261, limits assumed)
T2 sequence (looked up): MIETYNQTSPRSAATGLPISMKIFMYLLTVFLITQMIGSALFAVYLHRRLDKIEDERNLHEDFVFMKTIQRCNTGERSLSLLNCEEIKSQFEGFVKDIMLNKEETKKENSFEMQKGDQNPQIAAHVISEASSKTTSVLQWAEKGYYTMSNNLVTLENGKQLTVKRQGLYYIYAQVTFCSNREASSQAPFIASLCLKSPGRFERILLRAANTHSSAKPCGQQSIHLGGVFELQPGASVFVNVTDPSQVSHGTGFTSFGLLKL

B1: 342 Fab′ (Fab, V domains shown)
VH: EVQLVESGGGLVQPGGSLRLSCAVSGFSSTNYHVHWVRQAPGKGLEWMGVIWGDGDTSYNSVLKSRFTISRDTSKNTVYLQMNSLRAEDTAVYYCARQLTHYYVLAAWGQGTLVTVSS
VL: DIQMTQSPSSLSASVGDRVTITCRASEDLYYNLAWYQRKPGKAPKLLIYDTYRLADGVPSRFSGSGSGTDYTLTISSLQPEDFASYYCQQYYKFPFTFGQGTKVEIKR
B2: chimeric 342 Fab′ (unlabeled 342 Fab′ of FIG. 29C) (Fab, V domains shown)
VH: QVQLKESGPGLVQPSETLSLTCTVSGFSSTNYHVHWVRQPPGKSLEWMGVIWGDGDTSYNSVLKSRLSITRDTSRSQVFLKMSSLQTEDTATYYCARQLTHYYVLAAWGQGASVTVS
VL: DIQMTQSPASLSASLGETVTVECRASEDLYYNLAWYQRKPGNSPQLLIYDTYRLADGVPSRFSGSGSGTQYSLKINTLPSGDVASYFCQQYYKFPFTFGSGTKLELK
notes: also called ch342 Fab

How the values were obtained:
[1] = target: T1, Myc-tagged CD154; assay: ELISA: Myc-tagged CD154 captured on anti-Myc antibody 9E10, biotin 342 Fab' titrated, streptavidin-HRP detection (Example 14)
Method: In this assay, anti-Myc antibody 9E10 was coated onto an ELISA plate. Myc-tagged CD154 was captured by this antibody. […] The plate was washed and the amount of biotinylated 5c8 Fab bound was determined using streptavidin HRP as a secondary. The signal was graphed and fit using a either a one site binding hyperbola or a two site binding hyperbola curve fit in Prism software (Graph Pad).
A titration of biotin 5c8 Fab′ on CD154 to determine the appropriate concentration for cross-blocking analysis was also performed (FIG. 29B).

[2] = target: soluble human CD154 protein (extracellular domain) (human) (UniProt P29965); assay: Biacore (SPR), sequential injections: 342 FL captured, ECD, 342 Fab', then 5c8 Fab'; concentrations not given (Example 10)
[3] = target: T2, CD154 expressed on D1.1 Jurkat cells; assay: flow cytometry: Alexa Fluor 488-labeled 342 Fab' at 300 ng/ml on CD154-expressing D1.1 Jurkat cells (Example 9)
[4] = target: T1, Myc-tagged CD154; assay: competition ELISA on Myc-tagged CD154 captured by 9E10: unlabeled ch342 Fab' varied against 1 nM biotin 342 Fab' or 0.3 nM biotin 5c8 Fab' (Example 14)

| Binder | binding [1] | binding [2] | binding [3] | binding [4] |
| --- | --- | --- | --- | --- |
| B1 | binds | binds | binds |  |
| B2 |  |  |  | binds |
